PubChem BioAssay AID1224830 – NIAID | 2016

- Screen: 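Host factors that control LPS-induced TNF expression in human macrophages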 (primary screen)
- Cell system: human THP-1 monocytic leukaemia cells, TNF dual-luciferase reporter clone, PMA-differentiated to macrophage-like cells
- Reagents: siRNA pool against human genes, 50 nM
- Duration: LPS for 4 h, given about 3 days after siRNA transfection
- Treatment: bacterial LPS (TLR4 ligand), 10 ng/ml
- Measured: 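Ratio of firefly to renilla light, scaled to the plate median and expressed as a robust z-score per replicate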
- Reading the numbers: TNF reporter robust z-score: higher = stronger TNF reporter response to LPS
- Hit rule: 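Each well counts as active if its z-score is over 2.8 or under -1.5; controls are left without a call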
The deposit covers about 18,000 reagents; shown is an unselected part. Over the whole deposit, about 2,900 (16%) were called active. 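Calls are made per well; low scores hint the gene aids the LPS response, high scores that it dampens it.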 Repeated entries: four replicate wells of each siRNA pool. Reagent sequences are not shown.

FAM135B: TNF reporter robust z-score = -1.08; Call = inactive
FAM135B: TNF reporter robust z-score = -1.05; Call = inactive
FAM135B: TNF reporter robust z-score = -1.06; Call = inactive
FAM135B: TNF reporter robust z-score = -0.6; Call = inactive
SPCS2: TNF reporter robust z-score = 0.05; Call = inactive
SPCS2: TNF reporter robust z-score = -1.57; Call = active
SPCS2: TNF reporter robust z-score = -1.03; Call = inactive
SPCS2: TNF reporter robust z-score = 0.13; Call = inactive
GPHB5: TNF reporter robust z-score = 3.35; Call = active
GPHB5: TNF reporter robust z-score = 0.1; Call = inactive
GPHB5: TNF reporter robust z-score = -0.32; Call = inactive
GPHB5: TNF reporter robust z-score = 0.69; Call = inactive
NDUFC2: TNF reporter robust z-score = -1.13; Call = inactive
NDUFC2: TNF reporter robust z-score = -0.98; Call = inactive
NDUFC2: TNF reporter robust z-score = -0.96; Call = inactive
NDUFC2: TNF reporter robust z-score = -0.62; Call = inactive
HPGDS: TNF reporter robust z-score = 0.3; Call = inactive
HPGDS: TNF reporter robust z-score = -0.51; Call = inactive
HPGDS: TNF reporter robust z-score = -1.07; Call = inactive
HPGDS: TNF reporter robust z-score = 0.15; Call = inactive
MYLIP: TNF reporter robust z-score = -0.19; Call = inactive
MYLIP: TNF reporter robust z-score = -1.19; Call = inactive
MYLIP: TNF reporter robust z-score = -1.14; Call = inactive
MYLIP: TNF reporter robust z-score = 0.58; Call = inactive
GSTA4: TNF reporter robust z-score = -1.27; Call = inactive
GSTA4: TNF reporter robust z-score = -0.27; Call = inactive
GSTA4: TNF reporter robust z-score = -0.66; Call = inactive
GSTA4: TNF reporter robust z-score = -0.45; Call = inactive
RASA1: TNF reporter robust z-score = -1.1; Call = inactive
RASA1: TNF reporter robust z-score = -0.86; Call = inactive
RASA1: TNF reporter robust z-score = -0.66; Call = inactive
RASA1: TNF reporter robust z-score = -0.32; Call = inactive
TRIM2: TNF reporter robust z-score = -0.69; Call = inactive
TRIM2: TNF reporter robust z-score = 0.05; Call = inactive
TRIM2: TNF reporter robust z-score = 1.27; Call = inactive
TRIM2: TNF reporter robust z-score = 0.95; Call = inactive
EMD: TNF reporter robust z-score = -0.07; Call = inactive
EMD: TNF reporter robust z-score = -0.18; Call = inactive
EMD: TNF reporter robust z-score = 0.92; Call = inactive
EMD: TNF reporter robust z-score = -0.36; Call = inactive

Reagents above marked active, once more:
SPCS2: TNF reporter robust z-score = -1.57; Call = active
GPHB5: TNF reporter robust z-score = 3.35; Call = active

Continued.
C2orf68: TNF reporter robust z-score = 5.83; Call = active
C2orf68: TNF reporter robust z-score = 3.99; Call = active
C2orf68: TNF reporter robust z-score = 1.1; Call = inactive
C2orf68: TNF reporter robust z-score = -0.4; Call = inactive
CRYBG2: TNF reporter robust z-score = -1.31; Call = inactive
CRYBG2: TNF reporter robust z-score = -0.66; Call = inactive
CRYBG2: TNF reporter robust z-score = -1.45; Call = inactive
CRYBG2: TNF reporter robust z-score = -0.8; Call = inactive
H4C8: TNF reporter robust z-score = 1.72; Call = inactive
H4C8: TNF reporter robust z-score = 0.12; Call = inactive
H4C8: TNF reporter robust z-score = 1.16; Call = inactive
H4C8: TNF reporter robust z-score = 1; Call = inactive
TOMM34: TNF reporter robust z-score = -0.58; Call = inactive
TOMM34: TNF reporter robust z-score = -1.37; Call = inactive
TOMM34: TNF reporter robust z-score = -0.81; Call = inactive
TOMM34: TNF reporter robust z-score = -0.62; Call = inactive
BTNL8: TNF reporter robust z-score = 5.96; Call = active
BTNL8: TNF reporter robust z-score = 7.03; Call = active
BTNL8: TNF reporter robust z-score = 2.77; Call = inactive
BTNL8: TNF reporter robust z-score = 1.64; Call = inactive
